Test results reported in PubChem BioAssay AID624504 (Sanford-Burnham Center for Chemical Genomics, 2012).
The list shows a part of the results, in another mix than the full data. The source made the active and inactive calls. No stated cut-off is given here; in the data, active means inhibition above about 22%; inactive means the rest.

test: fluorescence retest of MPTP screen hits in isolated mitochondria, single concentration (AID 624504); settings: membrane potential, Rhodamine 123 fluorescence, at 10 µM, stronger effect = higher value;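 further: 0% = DMSO vehicle and 100% = positive control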

inhibition, active:
CC(C)C(=O)NC(Nc1cc(C(F)(F)F)ccc1Cl)C(Cl)(Cl)Cl (stereo not given) 87.3%, CC(C)(C)C1CCC2(CC1)C(C#N)=C(SCC(=O)Nc1ccccc1)NC(=O)C2C#N (stereo not given) 80%, O=C(Nc1ccccc1)c1ccccc1NS(=O)(=O)c1ccc(Cl)s1 106%, Cc1ccc(-c2cc(C(=O)N3N=C(C(F)F)CC3(O)C(F)F)c3ccccc3n2)cc1C (stereo not given) 78.1%, O=[N+]([O-])c1ccc(-c2nc(-c3cccs3)c(-c3cccs3)[nH]2)cc1 60.7%, CCc1ccc(-n2cccc2/C=C2/C(=N)N3C(=NC2=O)SN=C3S(C)(=O)=O)cc1 57.5%, COc1cccc(C(=O)NN/C(C)=C/C(=O)C(F)(F)C(F)(F)C(F)(F)F)c1 70%, O=C(Nc1ccncc1)c1ccc(-c2ccccc2)cc1 98.3%, Cc1ccc(S(=O)(=O)N2CCN(c3ncnc4ccccc34)CC2)cc1 78.4%, Cc1cc(/C=C\c2ccc3cc(N(C)C)ccc3[n+]2C)c(C)n1-c1ccccc1 77%
